What was measured:
[1] = tested on: MCF-7; assay: MTT antiproliferative; format: cell-based; details: Homo sapiens, MCF7, read-out: Cytotoxicity (IC50 μM) MCF-7
[2] = MTT antiproliferative; format: cell-based; details: human, MCF-10A cells (normal breast cell line)

`CN[C@@H]1C[C@H]2O[C@@](C)([C@@H]1OC)n1c3ccccc3c3c4c(c5c6ccccc6n2c5c31)C(=O)NC4` [Staurosporine, reference compound] gave an IC50 [1] of 3.44 ± 0.17 µM and an IC50 at 48 h [2] of 11.4 ± 0.57 µM.

Reference: PMC9050340 (RSC Advances, 2020)
